Patent US20030144495, “Drosophila recombination-associated protein and methods for use” (Albert Einstein College of Medicine of Yeshiva University, published 2003)
No signal at the amounts used counts as a negative. Protein sequences can lack the tags named with them.

Test system: T1, DRAP (recombinant) (Drosophila melanogaster)
T1 sequence (limits assumed): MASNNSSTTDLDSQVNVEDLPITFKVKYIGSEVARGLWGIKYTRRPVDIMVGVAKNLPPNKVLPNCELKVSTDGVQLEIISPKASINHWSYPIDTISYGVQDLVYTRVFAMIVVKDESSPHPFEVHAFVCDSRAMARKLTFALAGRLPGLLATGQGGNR
Assay: enzyme reaction in vitro
Details: no nuclease degradation, 37 C 30 min; catalysis only, not binding; purified recombinant protein; label: 5'-32P; single-stranded DNA

**Q.** With “GGTACCCGGGGATCCTCTAGAGTCGACCTGCAG [pUC19 polylinker 33-mer]” as the sequence, how does the “activity on this sequence” value read?
**A.** not active
